Results: patent US7462347B2, “Fluorescent membrane intercalating probes” (priority 2000, dated 2008)

Experiments:
[1] = tested on: YAC-1 murine lymphoma cells; experiment: S/N, retention and spectral crossover of labeled cells by flow cytometry; format: cell-based; settings: for S/N at T = 0 / % Retention at T = 22 hours: cells labeled at MTC; for S/N at T = 0: flow cytometry; for % Retention at T = 22 hours: growth-corrected, co-culture with unlabeled cells; for MFI, FL5 / Percent spectral overlap, FL5: FACS Vantage SE only, 647 excitation
YAC-1 cells [2] = experiment: Signal:noise estimation for in vitro imaging of labeled tumor cells; format: cell-based; settings: cells labeled at MTC, fluorescence microscope 100×, compared with PKH26
YAC-1 cells [3] = experiment: In vivo tracking and imaging of labeled tumor cells through the skin; design: species or system nude mice; settings: 10^6 labeled YAC-1 cells injected subcutaneously, CCD camera
[4] = FACS Calibur, 488 nm excitation 661/16 BP
[5] = FACS Calibur, 488 nm excitation, 585/42 BP
[6] = FACS Vantage SE, 488 nm excitation, 610/20 BP
[7] = FACS Vantage SE, 647 nm excitation, 740 LP

CCCCCCCCCCCCCCCCCCCCCC[N+]1=C(/C=C/C=C/C=C2/N(CCCCCCCCCCCCCC)c3ccccc3C2(C)C)C(C)(C)c2ccccc21.[I-] [Compound 8]
MFI, FL3 [1, 4]: MFI = (−389)
Percent spectral overlap, FL3 [1, 4]: 1.6%
MFI, FL2 [1, 5]: (MFI = 31)
Percent spectral overlap, FL2 [1, 5]: 0.001%
MFI, FL4 (primary channel) ([1]; FACS Calibur, 635 nm excitation, 661/16 BP): (MFI = 24430)
S/N at T = 0 [1]: 3948
% Retention at T = 22 hours [1]: 98%

CCCCCCCCCCCCCCCCCCCCCC[N+]1=C(/C=C/C=C/C=C2/N(CCCCCCCCCCCCCC)c3ccc4ccccc4c3C2(C)C)C(C)(C)c2c1ccc1ccccc21.[I-] [Compound 13]
MFI, FL5 ([1]; 740 LP): (MFI = 615)
Percent spectral overlap, FL5 ([1]; 740 LP): 7.6%
Percent spectral overlap, FL3 [1, 6]: 0
MFI, FL4 (primary channel) [1, 7]: (MFI = 8087)
S/N at T = 0 [1]: 1152
% Retention at T = 22 hours [1]: 90%
normalized S/N (standardized 50 msec acquisition time) (YAC-1 cells [2]): increased
fluorescence of labeled cells detected through the skin (YAC-1 cells [3]): can be detected through the skin of nude mice

CCCCCCCCCCCCCCCCCCCCCC[N+]1=C(/C=C/C=C/C=C/C=C2/N(CCCCCCCCCCCCCC)c3ccc4ccccc4c3C2(C)C)C(C)(C)c2c1ccc1ccccc21.[I-] [Compound 15]
normalized S/N (standardized 50 msec acquisition time) (YAC-1 cells [2]): increased
fluorescence of labeled cells detected through the skin (YAC-1 cells [3]): can be detected through the skin of nude mice

CCCCCCCCCCCCCCCCCCCCCC[N+]1=C(/C=C/C=C/C=C2/N(CCCCCCCCCCCCCC)c3ccc4ccccc4c3C2(C)C)C(C)(C)c2ccccc21 [Compound 25]
MFI, FL5 ([1]; 740 LP): (MFI = 4484)
Percent spectral overlap, FL5 ([1]; 740 LP): 62.4%
MFI, FL3 [1, 6]: (MFI = 0)
Percent spectral overlap, FL3 [1, 6]: 0
MFI, FL4 (primary channel) [1, 7]: (MFI = 7180)
S/N at T = 0 [1]: 1031
% Retention at T = 22 hours [1]: 91%

CCCCCCCCCCCCCCCCCCCCCC[N+]1=C(/C=C/C=C2/N(CCCCCCCCCCCCCC)c3ccccc3C2(C)C)C(C)(C)c2ccccc21.[I-] [PKH26, reference compound]
S/N at T = 0 [1]: 265 and 357
% Retention at T = 22 hours [1]: 106%

“And” between values parts separate entries of the source, which are not always exact repeats. Equal values may be shown once.
